According to article PMC2602725:
These are yes or no findings as the source states them, for the method shown. Binding seen in cells or lysates may run through a third protein. Some results given as binding are weak or reduced against the parent protein; the word gives no strength. Tags and fused reporters may be left off the sequences shown.

Sequences of proteins named here, by UniProt entry; tags and fusion partners are left off.
UniProt Q03347: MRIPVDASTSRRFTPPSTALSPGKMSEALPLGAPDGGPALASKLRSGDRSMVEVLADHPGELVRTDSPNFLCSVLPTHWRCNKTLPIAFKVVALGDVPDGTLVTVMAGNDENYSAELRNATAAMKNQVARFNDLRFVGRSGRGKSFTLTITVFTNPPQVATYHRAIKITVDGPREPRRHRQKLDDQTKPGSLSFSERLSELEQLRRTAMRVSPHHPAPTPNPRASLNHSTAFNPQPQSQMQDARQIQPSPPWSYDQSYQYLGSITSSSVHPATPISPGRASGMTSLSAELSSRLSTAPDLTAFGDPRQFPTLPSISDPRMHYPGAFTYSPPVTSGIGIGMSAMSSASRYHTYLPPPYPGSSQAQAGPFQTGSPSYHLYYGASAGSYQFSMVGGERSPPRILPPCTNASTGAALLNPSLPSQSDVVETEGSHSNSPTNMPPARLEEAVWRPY

Target: Myc-tagged Runx1 (UniProt Q03347)
Assay: co-IP; COS7 cells transfected for 48 h; lysed in NTN buffer containing 0.5% NP-40 and 0.5% Triton X-100; lysate incubated with anti-myc antibody overnight at 4 °C, Protein G-Sepharose 2 h, four washes; immunoblot with anti-FLAG

B1: FLAG-tagged Twist-2 (protein, UniProt Q9D030 1-160)
chain: MEEGSSSPVSPVDSLGTSEEELERQPKRFGRKRRYSKKSSEDGSPTPGKRGKKGSPSAQSFEELQSQRILANVRERQRTQSLNEAFAALRKIIPTLPSDKLSKIQTLKLAARYIDFLYQVLQSDEMDNKMTSCSYVAHERLSYAYSVWRMEGAWSMSASH
Q: For B1, which binding is on record?
A: Its binding is “binds”.
